Measured values as given in PubChem BioAssay AID1347426 (Functional Genomics Laboratory (NCATS/FGL), 2020).
The campaign covered roughly 31,000 sequences. About 1,400 (4.5%) were called active.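 The calls were made as follows: active = median seed-adjusted z-score above 1 or below -1; inactive = the rest.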 This is one part of the list.

Assay: Novel Modifiers of Survival Motor Neuron (SMN) Protein: Gene Identification via Genome-wide siRNA Screen;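 also: luminescence tracks full-length SMN protein made from the SMN2 reporter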
Details: HEK293T SMN2-luciferase reporter, siRNA knockdown, 72 h; actives lie on both sides
Outline: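 HEK293T cells stably expressing an SMN2 splicing/cDNA-luciferase reporter were reverse-transfected with a druggable-genome siRNA library and read by luminescence at 72 hours; hits defined by MAD score above 1.0 or below -1.0.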

Sequence	median seed-adjusted z-score
GGUUAUACAUCAUUGGGUATT against PHCA	inactive: 0.0568
GAAGCACAUUGUUUCCAGATT against SERGEF	inactive: -0.308
GCCUGAGAAAUUCACGAAATT against OGFOD1	inactive: 0.442
CCACAUCUGUGGAUAUCAUTT against CDH17	inactive: -0.167
UGGACAACUUUGUACCUAATT against EBP	inactive: 0.017
GGAGAUCUAUACUUCGCAATT against CHL1	inactive: 0.1
CUGUGGAAAUUUUAAGGGATT against ACSM3	inactive: 0.281
GAAGAUCUAUGGUUGACUATT against GLUD1	inactive: 0.156
GAGGCACAACAGAAGUUCATT against HAT1	inactive: -0.622
GGAGGAAUGUUACACGGCUTT against ITGB1	inactive: 0
CAGACAAGGUUCAACCGAATT against ORC2L	inactive: -0.101
GAAAUUUGCGUGUGGAGUATT against TP53	inactive: 0.214
CCAUGACUGUUGAGGUAGATT against AKAP12	inactive: -0.104
AGGAGACACUGCGACCGUATT against KCNQ4	inactive: 0.583
CACCUGAACUACCAAAAGATT against KLF11	inactive: 0.158
CUACCGAUUUGGGACCCAATT against SLC5A6	inactive: 0.994
GUGAUGACAUGGAUCUAGATT against ZSCAN29	inactive: 0.193
GUCUUGUACAAGGAAGUAATT against ZNF577	inactive: -0.756
GGAAGAGAACUGGAAGUUUTT against STARD3	inactive: -0.314
GGAAAAGUAUGAACUGAAATT against TREM1	inactive: 0
GGCUCCGUGCUUGUCCUUATT against SPR	inactive: 0.0329
GAAUAGUCUCUAUUCAACATT against ZNF292	inactive: -0.481

Sequence	median seed-adjusted z-score
GAAGCUAGGUAUAACCGGATT against PTAR1	inactive: -0.507
GUAGGUUGCUUAAAAGGGATT against APOC3	inactive: 0.185
CAACCCGAACUUUCCAGAATT against GUCA2A	inactive: 0.121
GCCGAGGAAUGGUUCUUCATT against KRT14	inactive: -0.127
AGGGAAUUGUGGAGCAUGATT against GNA12	inactive: 0.598
GGACCGGGACUAUCAAUGATT against AEBP1	inactive: -0.0536
GCUUUCAACGGGAUUAUUATT against HNRNPCL1	inactive: 0
AGAUCUCCGUGCCUCCUGUTT against DPYSL4	inactive: 0.71
CAAGCUGACAUAUCAAGUATT against MUTYH	inactive: 0.024
GACUGAUCCCUCUACUUCATT against SNTG1	inactive: 0.167
GCAAAUCAACAGUACGUUUTT against CARS2	inactive: 0
CAAGAUUCUGUGGUAAAUATT against ZNF45	inactive: 0.172
GAAGAUUGGUUACGGCAUATT against ATP11B	inactive: 0.0036
CUCUAUAUUUUCAACUGUATT against KCNV1	inactive: 0.109
GCUGUGGAUGGAUCGCAUATT against BTN3A1	inactive: -0.198
CUAUGGACUUCAUCGCUUUTT against EEF1E1	active: -1.45
GGAGGACCUCUGUACCUUUTT against ANKS1A	inactive: -0.0165
GGAUCACUGUCCCAACAGATT against NUP214	inactive: 0.074
GGCUGUAUGAGCACCGUUATT against TGIF1	inactive: 0.303
CCCACUUAAUGAUAUGAUATT against OSBPL8	inactive: 0.231
CAAGGAACUAUGUACAAAATT against POU4F1	inactive: -0.138
GCAACAAUCAGAUCGCUGATT against SLIT1	inactive: 0.12

Sequence	median seed-adjusted z-score
CGUGAAGCGGUAUGAGAAATT against RAP2A	inactive: -0.727
CAGAGACACUUCUACGAAATT against BTN1A1	inactive: 0.291
GCACUUAAGGAAUGACAGATT against CDY2A	inactive: 0.75
CGAACGAAGAAGAGCCGAATT against NFATC2	inactive: 0.183
CCAUCUCUACCGACGAAGATT against ARHGEF1	inactive: -0.0658
CAAAUUCAAGGGCAUCAAATT against SNX33	inactive: -0.246
AGAUUGACAUCGCGGGAUATT against PDPR	inactive: -0.0653
CAUGAUAUGUUUCACCGAATT against MYCBP2	inactive: 0
GGUCUGUGCUAACAAGGAATT against GSR	inactive: -0.467
GGAUGAGUUUUUAGAUCUUTT against GPSM2	inactive: -0.755
CGUGCACAAAGAUAGACUATT against MATN2	inactive: 0.275
CGGAUGAAAUGGAAACGCATT against MNX1	inactive: 0.734
GAUAAUGCCCAGACAUUUUTT against CLDN11	inactive: 0.268
GAAGUAACCAGAUCCAGUATT against RASA2	inactive: -0.913
CCAGGAUCUUAAUGUUUCUTT against CLDN22	inactive: 0
GGAUCACACUGACCUUGGATT against ZDHHC23	inactive: -0.536
CAAGCAAACUGAUUCAGCATT against CDS2	inactive: -0.811
GGAAGACUACCAAAUCGAATT against TTN	inactive: 0.872
GCUGAUCCCUUGCUAUGAATT against ITGA9	inactive: 0
GCAACUUACAUCAACUACATT against PPP1R7	inactive: 0.0505
CAUGCGGCUUUAUAGCAUUTT against UBR3	inactive: -0.894
CGUCAAUAAGAAAUCGCAATT against ZNF268	inactive: 0.0358

Sequence	median seed-adjusted z-score
GGAUGACAAAAGACUGAUUTT against NTM	inactive: 0
GGAGAGAGGUCCAGUCUGATT against BIRC7	active: -1.44
GGAAAAUGGGAGUAUCUUATT against CDYL2	inactive: -0.379
AGCCGUCAAUUGUUCAUCUTT against CD59	inactive: 0.79
GGACAUCUGUGCUGUCAAATT against SYN2	inactive: -0.375
GAUUGACCUGCGUUACGAATT against ADCK2	inactive: 0.0823
GCAUAUCUGCUAGGGAUAATT against MYO1E	inactive: -0.02
GCAGAAGCGUGGCAUUGUGTT against INS	inactive: 0
CAAGUACUGUGGGACCAAATT against NRP2	inactive: 0.477
CCAAGAAACUAACACGCUATT against PFKFB2	inactive: 0.311
ACACGGAGGUGUUCAGGAATT against SBF1	inactive: 0.192
GCCUCAUGGUUCUAGUAAATT against E2F2	inactive: -0.382
UCGACGUGAUCAUCACUGATT against SRM	inactive: 0
AGAAGAACCAGAGCUUCAATT against MSL3	inactive: 0.423
UGGUCAACCUGCAAGUGAATT against RHOD	inactive: 0
GUAACUGCAUUCAACUUGATT against OSMR	inactive: 0.548
GUAUUUGUACGUUUUAUUUTT against SCRT1	inactive: -0.483
GCACCAAACUUAGCUACGATT against DIS3L2	inactive: -0.265
GCAGAUAAAAUUAGAGUAATT against SRPK2	inactive: 0.654
GAAAGGACAUCACAGGUAATT against NQO1	inactive: 0
CUGCCUUGAUGACACCAGATT against TRIM16	inactive: 0.345
GCAUCCACGUCAUUGACCATT against TBCB	inactive: 0.69

Quoted from the entries so far for reference:
Sequence	median seed-adjusted z-score
CAGACAAGGUUCAACCGAATT against ORC2L	inactive: -0.101
GAAAUUUGCGUGUGGAGUATT against TP53	inactive: 0.214
CCAUGACUGUUGAGGUAGATT against AKAP12	inactive: -0.104
AGGAGACACUGCGACCGUATT against KCNQ4	inactive: 0.583
CACCUGAACUACCAAAAGATT against KLF11	inactive: 0.158
CUACCGAUUUGGGACCCAATT against SLC5A6	inactive: 0.994

2 records drawn at random from those above:
Sequence	median seed-adjusted z-score
GGAUGACAAAAGACUGAUUTT against NTM	inactive: 0
GCACCAAACUUAGCUACGATT against DIS3L2	inactive: -0.265

Continued:

Sequence	median seed-adjusted z-score
AGAAGACUCUGGUAAUGUATT against WHSC1	active: 1.17
UCAACAUCGUCUACCAGGATT against SCNN1D	active: -1.8
GGAAGAGAUGGAUCAGAAATT against RNF11	inactive: -0.365
CAUCUUAUCUACAUCUUAUTT against KCNK18	inactive: 0.115
GAUUCUGGAUUAUACUCCATT against SLC24A2	inactive: 0.136
CAAGAAUCAUUAAUACAAATT against CCL2	inactive: 0.651
AAGUCAUCAAGUUUACUAATT against NR1I3	inactive: 0.000933
CUUUAUCGGUGACAAGUUATT against ADCY7	inactive: -0.0202
CGACGGCACCAACUUCACATT against SUSD2	inactive: 0.422
GAACGACUGGGUAACAGUATT against CDH17	inactive: -0.167
AGAUCAUCGCGUUCAGCAATT against PRDX2	inactive: -0.359
AGAGAGGAGUGAAUAACUUTT against OGFOD2	inactive: 0.493
CUUUAGAAGGAUUAGAUUATT against PCDHGA7	inactive: 0.705
GGAUUUAUCAAGGGACGAATT against ACADL	inactive: 0.223
CCGCCUCUUUAGUUAUACATT against PDK4	inactive: -0.693
ACCUGACUAUCACCAUGCATT against CD7	inactive: 0.249
GUUUGAUAUGGAUCGCUUATT against PROX1	inactive: -0.372
GAAUGGACAAGGUACCAGATT against ATP12A	inactive: -0.0941
CAUCAUUACUGUUGAGGGATT against CSRP2BP	inactive: -0.526
CGAAAAGUCUCACAGUGGATT against ZNF563	inactive: 0.00283
